Common to all, as to parameters: species or system human
Data set [1] in a line: Identification and label-free relative LC-MS quantitation of HLA-presented peptides on tumor and normal tissue samples (XPRESIDENT presentation profiles). The following applies: for Entities of particular interest: entities where the peptide was over-presented on cancer samples compared to normal tissues; for Additional entities of particular interest (presentation of selected peptides across entities): tumor entities on which the HLA-presented peptide was found, entity abbreviations defined in the title of Table 4B.

The nature of data set [2]: Absolute quantitation of TUMAP copies per cell in tumor samples by nanoLC-MS/MS. The following applies: absolute peptide quantitation in tumor samples; median over samples.
The test system of data set [3] is source genes of the peptides (mRNA) in tumor and normal tissue. Description: Expression profiling of source genes by Affymetrix microarrays (target coverage). To be noted: over-expression = more than 1.5-fold higher expression on tumor vs. normal tissue with highest expression, gene with minimal coverage decisive; for Target coverage for source genes of selected peptides, BPHI/PCA (%): BPHI/PCA (prostate cancer) samples; for Target coverage for source genes of selected peptides, CRC (%): CRC tumor samples; for Target coverage for source genes of selected peptides, GB (%): GB tumor samples; for Target coverage for source genes of selected peptides, GC (%): GC tumor samples; for Target coverage for source genes of selected peptides, HCC (%): HCC tumor samples; for Target coverage for source genes of selected peptides, NSCLC (%): NSCLC tumor samples; for Target coverage for source genes of selected peptides, PC (%): PC tumor samples; for Target coverage for source genes of selected peptides, RCC (%): RCC tumor samples.

Data set [4] shares this test system. Description: Expression profiling of source genes by RNAseq (target coverage). The following applies: share of tumors with more than 1.5-fold over-expression vs highest-expressing relevant normal tissue; for Target coverage for source genes, AML (%): acute myeloid leukemia; for Target coverage for source genes, BRCA (%): breast cancer; for Target coverage for source genes, CLL (%): chronic leukemia (CLL); for Target coverage for source genes, OSCAR (%): esophageal cancer incl. gastric-oesophageal junction; for Target coverage for source genes, GBC_CCC (%): gallbladder adenocarcinoma and cholangiocarcinoma; for Target coverage for source genes, MEL (%): melanoma; for Target coverage for source genes, NHL (%): non-Hodgkin lymphoma; for Target coverage for source genes, OC (%): ovarian cancer; for Target coverage for source genes, SCLC (%): small cell lung cancer; for Target coverage for source genes, UBC (%): urinary bladder cancer; for Target coverage for source genes, UTC (%): uterine cancer.

For part of these data: Expression values are those of the mRNA of the gene that encodes the peptide; a gene is named only where it was looked up.

Regarding “11 (LLDPKTIFL; listed as Homo sapiens) [compound 11]”, in data set [1], the “Entities of particular interest” value is on record as “NSCLC, HCC, RCC, CRC” and the “Additional entities of particular interest (presentation of selected peptides across entities)” value is “GBC_CCC”. In data set [2], the “Copies per cell (median)” value was “+ (<100 = +)”.
On to “21 (YLMDDFSSL; listed as Homo sapiens) [compound 21]”, for which, in data set [1], the “Entities of particular interest” value is on record as “PC, NSCLC” and the “Additional entities of particular interest (presentation of selected peptides across entities)” value was “OSCAR, OC, SCLC, UBC, BRCA, GBC_CCC, MEL, AML, NHL”. Further, in data set [2], the “Copies per cell (median)” value is recorded as “+ (<100 = +)”.
Take “85 (KLLDKPEQFL; listed as Homo sapiens) [compound 85]”: in data set [1], the “Entities of particular interest” value was “NSCLC, OC, MEL, CRC” and the “Additional entities of particular interest (presentation of selected peptides across entities)” value is “NHL”. For the same substance, the “Copies per cell (median)” value in data set [2] is reported as “+ (<100 = +)”.
On to “89 (SLAETIFIV; listed as Homo sapiens) [compound 89]”, for which, in data set [1], the “Entities of particular interest” value is “GC, NSCLC, OC” and the “Additional entities of particular interest (presentation of selected peptides across entities)” value is “SCLC, GBC_CCC, RCC, NHL”. Moreover, the “Copies per cell (median)” value in data set [2] is on record as “+++ (>=1,000 +++)”.
With “117 (TLLEGISRA; listed as Homo sapiens) [compound 117]”, in data set [1], the “Entities of particular interest” value is “NSCLC, OC” and the “Additional entities of particular interest (presentation of selected peptides across entities)” value is listed as “BRCA”. Besides, the “Copies per cell (median)” value in data set [2] is recorded as “+ (<100 = +)”.
Turning to “267: peptide found in TOP2A (gene looked up) (YLLDMPLWYL; listed as Homo sapiens) [compound 267]”, in data set [1], the “Entities of particular interest” value is “NSCLC, RCC, CRC, OC, MEL” and the “Additional entities of particular interest (presentation of selected peptides across entities)” value was “AML, NHL”. In addition, in data set [3], the “Target coverage for source genes of selected peptides, BPHI/PCA (%)” value is “I (<19% over-expression = I)”; the “Target coverage for source genes of selected peptides, CRC (%)” value is on record as “IV (>70% = IV)”; the “Target coverage for source genes of selected peptides, GB (%)” value was “IV (>70% = IV)”; the “Target coverage for source genes of selected peptides, GC (%)” value is “IV (>70% = IV)”. Besides, in data set [3], the “Target coverage for source genes of selected peptides, HCC (%)” value is listed as “II (20-49% = II)”; the “Target coverage for source genes of selected peptides, NSCLC (%)” value is “IV (>70% = IV)”; the “Target coverage for source genes of selected peptides, PC (%)” value is recorded as “III (50-69% = III)”; the “Target coverage for source genes of selected peptides, RCC (%)” value was “II (20-49% = II)”. For the same substance, in data set [4], the “Target coverage for source genes, AML (%)” value (from here on “Target coverage … AML (%)”) is reported as “I (<19% over-expression = I)”; the “Target coverage for source genes, BRCA (%)” value (“Target coverage … BRCA (%)” for short) is “I (<19% over-expression = I)”; the “Target coverage for source genes, CLL (%)” value (from here on “Target coverage … CLL (%)”) is on record as “I (<19% over-expression = I)”; the “Target coverage for source genes, OSCAR (%)” value (“Target coverage … OSCAR (%)” for short) is listed as “I (<19% over-expression = I)”. In data set [4], the “Target coverage for source genes, GBC_CCC (%)” value (shortened to “Target coverage … GBC_CCC (%)”) is “I (<19% over-expression = I)”; the “Target coverage for source genes, MEL (%)” value (from here on “Target coverage … MEL (%)”) is “I (<19% over-expression = I)”; the “Target coverage for source genes, NHL (%)” value (“Target coverage … NHL (%)” for short) is “II (20-49% = II)”; the “Target coverage for source genes, OC (%)” value is “I (<19% over-expression = I)”. For the same substance, in data set [4], the “Target coverage for source genes, SCLC (%)” value is “III (50-69% = III)”; the “Target coverage for source genes, UBC (%)” value (“Target coverage … UBC (%)” for short) is recorded as “I (<19% over-expression = I)”; the “Target coverage for source genes, UTC (%)” value (“Target coverage … UTC (%)” for short) was “I (<19% over-expression = I)”.
For the substance “270: peptide found in FANCI (gene looked up) (TLLTFFHEL; listed as Homo sapiens) [compound 270]”, in data set [1], the “Entities of particular interest” value is “GB, PC” and the “Additional entities of particular interest (presentation of selected peptides across entities)” value is reported as “UTC, GBC_CCC, AML, NHL”. In addition, in data set [3], the “Target coverage for source genes of selected peptides, BPHI/PCA (%)” value was “I (<19% over-expression = I)”; the “Target coverage for source genes of selected peptides, CRC (%)” value is “III (50-69% = III)”; the “Target coverage for source genes of selected peptides, GB (%)” value was “II (20-49% = II)”; the “Target coverage for source genes of selected peptides, GC (%)” value is “II (20-49% = II)”. In addition, in data set [3], the “Target coverage for source genes of selected peptides, HCC (%)” value is “I (<19% over-expression = I)”; the “Target coverage for source genes of selected peptides, NSCLC (%)” value is given as “II (20-49% = II)”; the “Target coverage for source genes of selected peptides, PC (%)” value was “I (<19% over-expression = I)”; the “Target coverage for source genes of selected peptides, RCC (%)” value is on record as “I (<19% over-expression = I)”. For the same substance, in data set [4], the “Target coverage … AML (%)” value was “I (<19% over-expression = I)”; the “Target coverage … BRCA (%)” value is listed as “I (<19% over-expression = I)”; the “Target coverage … CLL (%)” value is “I (<19% over-expression = I)”; the “Target coverage … OSCAR (%)” value is “II (20-49% = II)”. Besides, in data set [4], the “Target coverage … GBC_CCC (%)” value is listed as “I (<19% over-expression = I)”; the “Target coverage … MEL (%)” value was “II (20-49% = II)”; the “Target coverage … NHL (%)” value is “I (<19% over-expression = I)”; the “Target coverage for source genes, OC (%)” value is on record as “I (<19% over-expression = I)”. In addition, in data set [4], the “Target coverage for source genes, SCLC (%)” value was “II (20-49% = II)”; the “Target coverage … UBC (%)” value is listed as “I (<19% over-expression = I)”; the “Target coverage … UTC (%)” value was “I (<19% over-expression = I)”.
On to “271: peptide found in FANCI (gene looked up) (VLIEYNFSI; listed as Homo sapiens) [compound 271]”, for which, in data set [1], the “Entities of particular interest” value is “NSCLC, OC” and the “Additional entities of particular interest (presentation of selected peptides across entities)” value is “CLL, SCLC, MEL, AML, NHL”. In data set [3], the “Target coverage for source genes of selected peptides, BPHI/PCA (%)” value was “I (<19% over-expression = I)”; the “Target coverage for source genes of selected peptides, CRC (%)” value was “III (50-69% = III)”; the “Target coverage for source genes of selected peptides, GB (%)” value is recorded as “II (20-49% = II)”; the “Target coverage for source genes of selected peptides, GC (%)” value was “II (20-49% = II)”. Further, in data set [3], the “Target coverage for source genes of selected peptides, HCC (%)” value is reported as “I (<19% over-expression = I)”; the “Target coverage for source genes of selected peptides, NSCLC (%)” value is “II (20-49% = II)”; the “Target coverage for source genes of selected peptides, PC (%)” value is listed as “I (<19% over-expression = I)”; the “Target coverage for source genes of selected peptides, RCC (%)” value was “I (<19% over-expression = I)”. In data set [4], the “Target coverage … AML (%)” value was “I (<19% over-expression = I)”; the “Target coverage … BRCA (%)” value is “I (<19% over-expression = I)”; the “Target coverage … CLL (%)” value is given as “I (<19% over-expression = I)”; the “Target coverage … OSCAR (%)” value was “III (50-69% = III)”. In addition, in data set [4], the “Target coverage … GBC_CCC (%)” value is given as “I (<19% over-expression = I)”; the “Target coverage … MEL (%)” value is “II (20-49% = II)”; the “Target coverage … NHL (%)” value is reported as “I (<19% over-expression = I)”; the “Target coverage for source genes, OC (%)” value is “I (<19% over-expression = I)”. Also, in data set [4], the “Target coverage for source genes, SCLC (%)” value was “II (20-49% = II)”; the “Target coverage … UBC (%)” value was “I (<19% over-expression = I)”; the “Target coverage … UTC (%)” value is “I (<19% over-expression = I)”.
With “277: peptide found in HMMR (gene looked up) (KLQEELNKV; listed as Homo sapiens) [compound 277]”, in data set [1], the “Entities of particular interest” value is given as “HCC, OC” and the “Additional entities of particular interest (presentation of selected peptides across entities)” value was “NSCLC, OSCAR, UBC, BRCA, NHL”. Besides, in data set [3], the “Target coverage for source genes of selected peptides, BPHI/PCA (%)” value is “I (<19% over-expression = I)”; the “Target coverage for source genes of selected peptides, CRC (%)” value is reported as “III (50-69% = III)”; the “Target coverage for source genes of selected peptides, GB (%)” value was “I (<19% over-expression = I)”; the “Target coverage for source genes of selected peptides, GC (%)” value is “III (50-69% = III)”. Moreover, in data set [3], the “Target coverage for source genes of selected peptides, HCC (%)” value is given as “I (<19% over-expression = I)”; the “Target coverage for source genes of selected peptides, NSCLC (%)” value was “II (20-49% = II)”; the “Target coverage for source genes of selected peptides, PC (%)” value was “I (<19% over-expression = I)”; the “Target coverage for source genes of selected peptides, RCC (%)” value is listed as “I (<19% over-expression = I)”. Also, in data set [4], the “Target coverage … AML (%)” value is “I (<19% over-expression = I)”; the “Target coverage … BRCA (%)” value is recorded as “I (<19% over-expression = I)”; the “Target coverage … CLL (%)” value is reported as “I (<19% over-expression = I)”; the “Target coverage … OSCAR (%)” value is reported as “I (<19% over-expression = I)”. Moreover, in data set [4], the “Target coverage … GBC_CCC (%)” value is reported as “I (<19% over-expression = I)”; the “Target coverage … MEL (%)” value is reported as “I (<19% over-expression = I)”; the “Target coverage … NHL (%)” value is “I (<19% over-expression = I)”; the “Target coverage for source genes, OC (%)” value is “I (<19% over-expression = I)”. Besides, in data set [4], the “Target coverage for source genes, SCLC (%)” value is given as “I (<19% over-expression = I)”; the “Target coverage … UBC (%)” value is “I (<19% over-expression = I)”; the “Target coverage … UTC (%)” value is “I (<19% over-expression = I)”.

For the origin of these results see patent publication US20160279215A1, “NOVEL PEPTIDES AND COMBINATION OF PEPTIDES FOR USE IN IMMUNOTHERAPY AGAINST VARIOUS TUMORS” (immatics biotechnologies GmbH, priority 2015, published 2016).
